These results are taken from US11617748B2, “Meclozine derivatives and diclazuril derivatives for use in the prevention and/or the treatment of disorders associated to the inflammation induced by P. acnes” (priority 2016, dated 2023).

The subject of this series is HaCaT cells. The experiment in a line: MTT cell viability assay on HaCaT keratinocytes. As to conditions: 24 h pre-treatment (FIG. 8A). It counts as cell-based, human. Here is the method: Cell culture, pretreatment and stimulation. The immortalized human keratinocyte cell line HaCaT, fibroblast MRC5 were grown in Dulbecco's modified Eagle's medium-Glutamax-I (DMEM) with 1 mM sodium pyruvate. […] DMEM and RPMI were supplemented with 0.1% and 10% heat-inactivated fetal calf serum (Invitrogen), and an antibiotic/antimycotic solution (10 U/ml Pencillin, 10 μg/ml Streptomycin, 0.25 μg/ml Amphoterin) at 37° C. in humidified atmosphere containing 5% CO2 as described (Life Technologie). Primary human keratinocytes (NHDK) and fibroblast (HDF) were grown in the KGM-Gold and in FGM-2 Bullet Kit, respectively, as described by the manufacturer (Lonza). The immortalized cell lines were routinely tested to assess the absence of Mycoplasma infection. Cells, cultivated in 6- or 96-well polystyrene plates, were pretreated with appropriate molecule solution for 1 to 48 h at 37° C. in the dark at the appropriate concentration. Then, for stimulation, cells were incubated for 15 min to 24 h with the P. acnes suspension adjusted at the appropriate concentration at 37° C. in 5% CO2. For experiences using an in vitro model of psoriasis, the primary human keratinocytes (NHDK) were grown in culture medium for 24 hours.
Cell viability assays. […] After thorough mixing, the absorbance was measured at 540 nm.
A general note: Tetrazolium assays rely on reduction of a dye to a coloured formazan, in cell work by metabolically active cells.

With `CCC[C@@H]1C[C@@H](C(=O)N[C@@H]([C@H]2O[C@H](SC)[C@H](O)[C@@H](O)[C@H]2O)[C@H](C)Cl)N(C)C1` [clindamycine], the “toxicity at 6.25 μM, in words (MTT)” value is reported as “no toxicity”.
